PubChem BioAssay AID504808, Drosophila RNAi Screening Center, 2011
The screen tested about 21,000 reagents; this is a random part of those that have a named target and a result. Of all reagents, 18 (0.084%) are marked active. 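Raw counts without plate normalisation, one of two replicates; the ratio scores behind the calls were not deposited.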 Entries without a mark were called inactive. Not given: the amount of reagent, the time to read-out.

- Screen: 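Genes whose loss lifts activity of an E2F-responsive reporter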 (primary screen)
- Cells: Drosophila S2 cells
- Reagent: long dsRNA against Drosophila genes
- Detection: 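Dual luciferase plate measurements; E2F-specific signal taken as firefly over Renilla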
- Reading the numbers: E2F firefly: higher = more E2F reporter activity; Renilla normaliser: higher = more normaliser reporter signal
- Call rule: 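Called active if the normalised E2F reporter went up by over 50%; the cutoff is arbitrary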

Gene | dsRNA | E2F firefly, rep 1 | Renilla normaliser, rep 1
CG11726 | DRSC09858 | 1.31e5 | 6443
U2af38 | DRSC00796 | 83760 | 3881
Pgcl | DRSC18815 | 38636 | 3795
Tpl94D | DRSC13593 | 82364 | 2529
CG11251 | DRSC09825 | 1.27e5 | 6445
CG42700 | DRSC06292 | 82129 | 3374
CG42700 | DRSC06293 | 1.05e5 | 4366
CG17124 | DRSC02580 | 1.51e5 | 4970
cpx | DRSC11999 | 84927 | 3588
Vlet | DRSC19845 | 8609 | 772
Idi | DRSC15918 | 73571 | 3285
CG14740 | DRSC14960 | 69296 | 3974
CG9386 | DRSC16485 | 1.21e5 | 5810
na | DRSC19639 | 1.75e5 | 14743
CG17593 | DRSC00504 | 1.55e5 | 5221
CG10307 | DRSC04057 | 87104 | 3723
List | DRSC06520 | 1.40e5 | 5736
ear | DRSC15675 | 53306 | 3022
Tudor-SN | DRSC08581 | 72744 | 3567
CG10527 | DRSC04078 | 64707 | 3036
CG8630 | DRSC16441 | 94135 | 6329
Zip42C.2 | DRSC05004 | 1.15e5 | 4216
CG5002 | DRSC06911 | 85450 | 3179
CG5770 | DRSC06954 | 72889 | 2987
Tdc1 | DRSC04942 | 1.37e5 | 5049
CG12279 | DRSC14495 | 1.17e5 | 5692
CG10029 | DRSC12498 | 1.21e5 | 6083
CG14456 | DRSC11713 | 1.27e5 | 6823
eIF4H1 | DRSC20276 | 2.00e5 | 7029
CG15023 | DRSC08477 | 88144 | 3712
CG14020 | DRSC02350 | 1.51e5 | 4941
dsx-c73A | DRSC09435 | 1.31e5 | 3823
dsx-c73A | DRSC09914 | 1.69e5 | 9431
dsx-c73A | DRSC10429 | 1.69e5 | 7326
CG14282 | DRSC14763 | 1.49e5 | 8003
CG32052 | DRSC10966 | 1.02e5 | 5960
ZnT35C | DRSC01959 | 1.07e5 | 4302
Pdi | DRSC11250 | 1.27e5 | 7703
CG31781 (retired record) | DRSC02431 | 88959 | 3853
CG31781 (retired record) | DRSC02432 | 1.13e5 | 5132
CG32073 | DRSC09087 | 1.09e5 | 3798
CG32073 | DRSC09894 | 1.01e5 | 5553
CG31327 | DRSC13019 | 86069 | 2344
APC7 | DRSC17937 | 7810 | 744
eater | DRSC15969 | 1.23e5 | 6927
CG1896 | DRSC15397 | 2094 | 952
Rgk1 (retired record) | DRSC07343 | 1.42e5 | 4994
Rgk1 (retired record) | DRSC07344 | 1.19e5 | 3797
Cyp6a19 | DRSC07379 | 138 | 20
Cpr62Bc | DRSC08545 | 97516 | 4202
Pgant3 | DRSC05942 | 87427 | 3782
Ir94h | DRSC15232 | 88922 | 5000
mahj | DRSC04053 | 72071 | 4120
Treh | DRSC04548 | 73242 | 3131
P5CS | DRSC11831 | 75234 | 4076
P5CS | DRSC11832 | 1.39e5 | 7245
CG16741 | DRSC06622 | 1.35e5 | 4527
COX5B | DRSC02115 | 1.43e5 | 5071
L2HGDH | DRSC02082 | 88115 | 3824
Fitm | DRSC09772 | 73071 | 3503
CG17472 | DRSC02622 | 1.02e5 | 4481
Sdr | DRSC15517 | 71494 | 3588
CG9547 | DRSC03260 | 94558 | 3946
CG13384 | DRSC02258 | 1.01e5 | 3723
CG9839 | DRSC16574 | 70217 | 3242
CG5096 | DRSC02813 | 1.63e5 | 4745
CG11396 | DRSC11654 | 1.31e5 | 5397
Dh44-R1 | DRSC07172 | 152 | 39
CG1074 | DRSC12143 | 91651 | 3673
Nfs1 | DRSC02154 | 78843 | 3419
Nepl15 | DRSC15630 | 73111 | 4005
CG15406 | DRSC00420 | 1.50e5 | 5422
CG15544 | DRSC15082 | 1.28e5 | 6651
stops | DRSC15095 | 1.10e5 | 6342
stops | DRSC15096 | 1.10e5 | 5473
stops | DRSC15097 | 1.20e5 | 6691
flz | DRSC07109 | 1.45e5 | 4896
CG15107 | DRSC06534 | 1.31e5 | 4523
CG30380 | DRSC05069 | 1.40e5 | 5247
kibra | DRSC14533 | 1.06e5 | 6220
kibra | DRSC16257 | 52033 | 5316
Cchl | DRSC15949 | 71815 | 2882
EMC5 | DRSC02469 | 97717 | 4159
Ak1 | DRSC10248 | 1.38e5 | 7430

Copied from the listing for reference:
Gene | dsRNA | E2F firefly, rep 1 | Renilla normaliser, rep 1
CG31327 | DRSC13019 | 86069 | 2344
APC7 | DRSC17937 | 7810 | 744
eater | DRSC15969 | 1.23e5 | 6927
CG1896 | DRSC15397 | 2094 | 952
Rgk1 (retired record) | DRSC07343 | 1.42e5 | 4994
Rgk1 (retired record) | DRSC07344 | 1.19e5 | 3797
Cyp6a19 | DRSC07379 | 138 | 20
Cpr62Bc | DRSC08545 | 97516 | 4202
Pgant3 | DRSC05942 | 87427 | 3782
Ir94h | DRSC15232 | 88922 | 5000
